Results deposited as PubChem BioAssay AID1259308 (NCATS, 2017).

- Test: 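Genes whose loss raises luciferase production in HEK293 cells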 (primary screen)
- System: human HEK293 embryonic kidney cells stably expressing firefly luciferase (HEK-CMV-Luc2-Hygro)
- Knock-down reagent: single siRNA against human genes, 0.8 pmol siRNA per well
- Timing: 72 h
- Read-out: 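Luciferase light (ONE-Glo) measured on one replicate plate set and viability (CellTiter-Glo) on the other, scaled to a negative control siRNA, with robust z-scores and luciferase per cell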
- Direction: total luciferase, z-score and total luciferase, % of control: higher = more reporter protein produced
- Hit rule: 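Active when the median/MAD z-score for overall luciferase is greater than 3; a gene was taken forward for validation with new siRNAs if at least two of its three siRNAs passed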
- Meaning of the calls: active = raised luciferase; inactive = no rise
The deposit covers about 59,000 reagents; shown is a part drawn at random. Of all reagents, about 1,510 (2.6%) were called active. 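Calls use total luciferase alone and ignore viability, so some active siRNAs may act by altering cell number.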 A number with no mark means an inactive call. Reagents against one gene are numbered here. Not all columns of the deposit are shown. Reagent sequences are not shown.

QSER1 #1 → total luciferase, z-score: 1.57; total luciferase, % of control: 113
QSER1 #2 → total luciferase, z-score: 0.52; total luciferase, % of control: 92.2
QSER1 #3 → total luciferase, z-score: 0.679; total luciferase, % of control: 95.4
POLR2C #1 → total luciferase, z-score: -2.8; total luciferase, % of control: 26.3
POLR2C #2 → total luciferase, z-score: -2.04; total luciferase, % of control: 41.3
POLR2C #3 → total luciferase, z-score: -3.25; total luciferase, % of control: 17.2
LEMD1 #1 → total luciferase, z-score: -2.76; total luciferase, % of control: 27
LEMD1 #2 → total luciferase, z-score: 0.732; total luciferase, % of control: 96.5
LEMD1 #3 → total luciferase, z-score: -0.66; total luciferase, % of control: 68.8
MT1XP1 #1 → total luciferase, z-score: 1.81; total luciferase, % of control: 118
MT1XP1 #2 → total luciferase, z-score: 2.59; total luciferase, % of control: 133
MT1XP1 #3 → total luciferase, z-score: -0.372; total luciferase, % of control: 74.5
CNPPD1 #1 → total luciferase, z-score: -0.105; total luciferase, % of control: 79.8
CNPPD1 #2 → total luciferase, z-score: -0.471; total luciferase, % of control: 72.5
CNPPD1 #3 → total luciferase, z-score: 0.354; total luciferase, % of control: 88.9
GALR1 #1 → total luciferase, z-score: 0.288; total luciferase, % of control: 87.6
GALR1 #2 → total luciferase, z-score: 0.015; total luciferase, % of control: 82.2
GALR1 #3 → total luciferase, z-score: 0.0769; total luciferase, % of control: 83.4
ZMAT1 #1 → total luciferase, z-score: -0.736; total luciferase, % of control: 67.3
ZMAT1 #2 → total luciferase, z-score: 0.955; total luciferase, % of control: 101
ZMAT1 #3 → total luciferase, z-score: 0.276; total luciferase, % of control: 87.4

2 entries from above, limited to “total luciferase, % of control”.
CNPPD1 #3	88.9
GALR1 #1	87.6

Further entries follow.
GCOM1 #1 → total luciferase, z-score: 0.17; total luciferase, % of control: 85.3
GCOM1 #2 → total luciferase, z-score: 0.187; total luciferase, % of control: 85.6
GCOM1 #3 → total luciferase, z-score: 0.292; total luciferase, % of control: 87.7
MYL2 #1 → total luciferase, z-score: -0.48; total luciferase, % of control: 72.3
MYL2 #2 → total luciferase, z-score: 0.0277; total luciferase, % of control: 82.4
MYL2 #3 → total luciferase, z-score: 0.0985; total luciferase, % of control: 83.8
TBC1D10A #1 → total luciferase, z-score: -0.0339; total luciferase, % of control: 81.2
TBC1D10A #2 → total luciferase, z-score: 0.689; total luciferase, % of control: 95.6
TBC1D10A #3 → total luciferase, z-score: -0.257; total luciferase, % of control: 76.8
SPANXB1 #1 → total luciferase, z-score: 0.31; total luciferase, % of control: 88
SPANXB1 #2 → total luciferase, z-score: 0.24; total luciferase, % of control: 86.7
SPANXB1 #3 → total luciferase, z-score: 0.812; total luciferase, % of control: 98
